The assay has as its target Lck (Src-family kinase) (human (endogenous in P116 Jurkat)) (UniProt P06239). In words: co-IP; Lck immunoprecipitated (1 ug anti-Lck clone 3A5, Protein A agarose, overnight 4 °C) from 500 ug of 1% DDM lysate of P116 Jurkat cells stably expressing WT or C564R ZAP-70; cells resting or stimulated with anti-CD3 antibody for the indicated times; ZAP-70 detected in eluates by immunoblot. On the technique in general: In western blotting, separated proteins are transferred to a membrane and probed.

Sequences of proteins named here, by UniProt entry; tags and fusion partners are left off. A change or cut given only in a name is not applied to a line headed by its entry.
UniProt P06239: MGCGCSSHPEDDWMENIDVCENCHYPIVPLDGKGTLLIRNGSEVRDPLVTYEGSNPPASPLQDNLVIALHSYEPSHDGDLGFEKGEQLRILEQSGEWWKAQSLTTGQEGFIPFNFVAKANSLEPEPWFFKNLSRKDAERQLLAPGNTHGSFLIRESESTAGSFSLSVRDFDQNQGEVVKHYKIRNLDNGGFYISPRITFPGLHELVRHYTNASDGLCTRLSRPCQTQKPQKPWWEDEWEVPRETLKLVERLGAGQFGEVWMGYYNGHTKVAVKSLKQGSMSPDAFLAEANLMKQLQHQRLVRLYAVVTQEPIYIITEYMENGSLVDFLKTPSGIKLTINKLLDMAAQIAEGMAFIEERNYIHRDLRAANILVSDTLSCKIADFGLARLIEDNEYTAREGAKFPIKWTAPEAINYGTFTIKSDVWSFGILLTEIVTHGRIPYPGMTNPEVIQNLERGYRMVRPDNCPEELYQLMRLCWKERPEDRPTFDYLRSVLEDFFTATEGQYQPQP
UniProt P43403: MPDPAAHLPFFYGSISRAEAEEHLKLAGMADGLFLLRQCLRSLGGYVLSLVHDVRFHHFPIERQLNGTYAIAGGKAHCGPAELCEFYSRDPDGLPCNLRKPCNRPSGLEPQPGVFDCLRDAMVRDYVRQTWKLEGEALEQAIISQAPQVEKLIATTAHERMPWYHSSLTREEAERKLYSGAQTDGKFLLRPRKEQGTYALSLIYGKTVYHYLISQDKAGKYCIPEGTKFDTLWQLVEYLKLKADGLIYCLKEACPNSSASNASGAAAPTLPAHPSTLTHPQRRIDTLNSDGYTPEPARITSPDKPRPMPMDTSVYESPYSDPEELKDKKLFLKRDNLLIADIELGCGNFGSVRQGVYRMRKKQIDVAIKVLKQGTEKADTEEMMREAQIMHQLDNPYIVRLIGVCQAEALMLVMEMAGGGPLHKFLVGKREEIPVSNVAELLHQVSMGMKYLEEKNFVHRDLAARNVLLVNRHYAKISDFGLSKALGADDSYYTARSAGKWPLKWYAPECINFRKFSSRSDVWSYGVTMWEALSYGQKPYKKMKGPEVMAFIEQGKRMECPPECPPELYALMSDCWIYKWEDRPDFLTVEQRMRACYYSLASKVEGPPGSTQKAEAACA

Experimental findings from paper PMC7949058 are described below.

These are yes or no findings as the source states them, for the method shown. In cells and extracts the contact can be indirect. Some entries that bind do so weakly or less than the wild type.

“C564R ZAP-70 (acylation-deficient mutant) (from UniProt P43403 1-619) (enzyme)”: the binding result is reported as “binds”.

Turning to “wildtype ZAP-70 (CD3ζ-chain-associated protein kinase 70) (from UniProt P43403 1-619) (enzyme)”, the binding entry is given as “binds”.
